Some of the results follow. The main result of the screen is listed elsewhere. These columns were measured beside it and carry no call. The list favours compounds with an active or inconclusive main result. The note in brackets gives the kind of curve behind each potency; many fits are weak.
Test: qHTS Assay to Find Inhibitors of Chronic Active B-Cell Receptor Signaling
Conditions: ABC-DLBCL IkBa-CBG/CBR reporter, luminescence ratio (green luciferase fused to IkBa over red control in TMD8 lymphoma cells), 4 h
Method in brief: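 TMD8 human ABC-DLBCL cells with doxycycline-inducible IκBα–green luciferase fusion and unfused red luciferase, in 0.5% FBS medium; compounds up to 46 uM, 4 h at 37C. Green/red luminescence ratio, filter-overlap corrected, fitted to concentration-response curves.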

[1] = measured here: CBR red luminescence, cell number
[2] = measured here: IkBa-CBG green luminescence

SMILES	AC50 [1]	AC50 [2]
Cc1csc(NC(=S)NC(=O)c2ccccc2)n1	12.6 µM [falling, partial curve]	12.6 µM [falling, partial curve]
COCCCn1c(=S)[nH]c2ccc(N3CCOCC3)cc2c1=O	2.06 µM [falling, partial curve, poor fit]	–
CCC(C)Nc1nc(N)c([N+](=O)[O-])c(NCCO)n1 (stereo unspecified)	22.4 µM [rising, single point]	–
CCN(CC(=O)NC1CCCC1)S(=O)(=O)c1ccc(F)cc1	0.112 µM [rising, full curve, poor fit]	–
O=C1CSC(c2cccc([N+](=O)[O-])c2)N1c1ccccc1 (stereo unspecified)	0.112 µM [falling, full curve, poor fit]	–
CCCCn1c(N)c(N(CC(C)C)C(=O)c2cc3c(s2)CCCCC3)c(=O)[nH]c1=O	6.51 µM [rising, single point]	–
COc1cccc(-c2nc(-c3ccccc3)c(-c3ccccc3)[nH]2)c1OCC(=O)O	17.8 µM [falling, partial curve, poor fit]	–
Cc1ccc(Nc2c([N+](=O)[O-])c(=O)n(C)c3ccccc23)cc1C	9.2 µM [falling, partial curve]	–
O=C(CCc1nnc(CCCCc2ccccc2)o1)NCCN1CCOC1=O	5.01 µM [rising, partial curve, poor fit]	–
CC(C)C(=O)Nc1cccc(NC(=S)NC(=O)c2cccs2)c1	1.58 µM [falling, partial curve, poor fit]	–
COCCCN(C(=O)Nc1cccc(Cl)c1)C(C)c1ccccn1 (stereo unspecified)	14.6 µM [rising, partial curve]	–
O=C(NC1CCN(C(=O)Nc2cccc(Cl)c2)CC1)c1ccccc1	3.55 µM [rising, single point]	–
O=C1CC(Nc2ccc(N3CCOCC3)cc2)C(=O)N1c1ccccc1F (stereo unspecified)	23.1 µM [falling, single point]	–
COc1ccc(Cl)cc1NC(=S)NCc1ccc(S(N)(=O)=O)cc1	20.6 µM [falling, partial curve, poor fit]	–
CCC(=O)c1cc(F)ccc1OCC(=O)Nc1ccc2c(c1)OCCO2	29.1 µM [rising, single point]	–
Cn1c(=O)n(C)c2cc(N3CCCCC3)c(NC(=O)c3cccc(Cl)c3)cc21	20 µM [rising, partial curve, poor fit]	–
Cc1ccc(C2=NN(C(=O)c3ccco3)C(O)(C(F)(F)F)C2)cc1 (stereo unspecified)	0.112 µM [rising, full curve, poor fit]	–
CNc1nc(NN)nc(Nc2ccccc2)n1	15.8 µM [falling, single point]	–
COC(=O)[C@@H]1CC[C@H](C)[C@@H](c2ccc(C)cc2)N1C(=O)c1ccc(/C=N/O[C@@H](C)c2cn([C@H](CO)Cc3ccccc3)nn2)cc1	13 µM [falling, partial curve]	–
COc1nn(-c2ccccc2)c(=O)c(Cl)c1Cl	22.4 µM [falling, single point]	–
C=CCc1ccc(OCC(O)CN2CCN(Cc3ccc(Cl)cc3)CC2)c(OC)c1 (stereo unspecified)	32.6 µM [falling, single point]	–
O=C(CN1C(=O)S/C(=C\c2ccccc2)C1=O)NC1CCS(=O)(=O)C1 (stereo unspecified)	10 µM [falling, single point]	–

Exported field by field: four of the compounds above
Cc1csc(NC(=S)NC(=O)c2ccccc2)n1
  AC50 [1]: 12.6 µM [falling, partial curve]
  AC50 [2]: 12.6 µM [falling, partial curve]
CCN(CC(=O)NC1CCCC1)S(=O)(=O)c1ccc(F)cc1
  AC50 [1]: 0.112 µM [rising, full curve, poor fit]
O=C(CCc1nnc(CCCCc2ccccc2)o1)NCCN1CCOC1=O
  AC50 [1]: 5.01 µM [rising, partial curve, poor fit]
CC(C)C(=O)Nc1cccc(NC(=S)NC(=O)c2cccs2)c1
  AC50 [1]: 1.58 µM [falling, partial curve, poor fit]

(continued)

SMILES	AC50 [1]	AC50 [2]
Cc1ccc(-c2onc3ccc(Cl)cc23)cc1	23.1 µM [rising, single point]	–
O=C(O)CCc1nc(-c2ccc(Cl)cc2)no1	7.08 µM [falling, full curve, poor fit]	–
O=C(CSc1nccn1Cc1ccccc1)NCc1ccccc1	10.3 µM [rising, partial curve, poor fit]	–
CCOC(=O)C1CCN(C(=O)C2(NC(=O)Nc3ccc(F)cc3F)CCCCC2)CC1	3.55 µM [rising, single point]	–
Cc1ccc(Cn2ccc(=O)c(OCc3c(Cl)cccc3Cl)c2C)cc1	20.6 µM [falling, single point]	–
N#Cc1ccc(N2Cc3ccccc3/C2=N/C(=O)Nc2ccc(Cl)cc2)cc1	5.17 µM [rising, partial curve, poor fit]	–
Cc1cccc(C(=O)Nc2nnc(COc3ccccc3)s2)c1	22.4 µM [falling, partial curve, poor fit]	–
O=c1c2ccccc2[nH]c(=S)n1CCN1CCC(=C(c2ccc(F)cc2)c2ccc(F)cc2)CC1	23.1 µM [rising, single point]	–
COc1ccc(-c2[nH]ncc2CN2CCCC(C(=O)c3ccc(OC)cc3OC)C2)cc1 (stereo unspecified)	3.98 µM [falling, single point]	–
Nc1c(S(=O)(=O)c2cccs2)c2nc3ccccc3nc2n1Cc1ccc2c(c1)OCO2	4.47 µM [falling, partial curve, poor fit]	–
COC(=O)c1ccc(COC(=O)c2ccccc2OC)cc1	2.06 µM [rising, partial curve]	–
Cc1cc(C(=O)Nc2ccc(Cl)cc2)n(-c2ccccc2)n1	12.6 µM [falling, partial curve]	–
OCCNCCNCc1ccc(-c2ccccc2)cc1	35.5 µM [falling, single point]	–
O=c1[nH]c2ccccc2n1CCCN1CCCCC1	10 µM [falling, partial curve, poor fit]	–
Cc1ccnc(SCC(=O)c2ccc([N+](=O)[O-])cc2)n1	2.06 µM [rising, partial curve]	–
COc1ccc(C(=O)/C=C/N2CCCCC2)cc1OC	1.12 µM [rising, full curve, poor fit]	–
Cc1ccc(C)c(NS(=O)(=O)c2ccc(NC(=O)CSc3ccc(Cl)cc3)cc2)c1	0.651 µM [rising, full curve]	–
Cc1ccccc1C(=O)N1CCN(c2ccc(NC(=O)c3ccc([N+](=O)[O-])o3)cc2)CC1	6.31 µM [falling, single point]	–
O=C1c2ccccc2C(=O)N1CNc1ccccc1	0.116 µM [falling, full curve, poor fit]	–
COc1cc(C(=O)NCCSc2ccc(Cl)cc2)cc(OC)c1OC	3.16 µM [falling, single point]	–
Cc1ccsc1/C=N\Nc1cn[nH]c(=O)c1Cl	14.1 µM [falling, partial curve]	–
COc1cc(C)ccc1OCCOc1c(C)cc(Cl)cc1Cl	4.11 µM [rising, full curve, poor fit]	–

SMILES	AC50 [1]	AC50 [2]
CCCNC(=O)c1ccc2c(c1)nc(C)n2-c1cccc(Cl)c1	35.5 µM [rising, single point]	–
CN(C)S(=O)(=O)c1ccc(N2CCCC2)c(C(=O)NNC(=O)COc2ccccc2F)c1	3.66 µM [rising, full curve, poor fit]	–
Cc1ccc(O)c(NC(=S)NC(=O)c2ccccc2Cl)c1	5.62 µM [falling, partial curve]	–
CCc1ccc(OC(=O)/C=C/c2ccco2)cc1	35.5 µM [rising, single point]	–
CN(C)c1c([N+](=O)[O-])cc2[nH]c(=O)[nH]c2c1[N+](=O)[O-]	13 µM [rising, single point]	–
CSc1sc(C(=O)NNC(=O)c2ccc(Cl)cc2)c2c1C=CCC2	10 µM [falling, partial curve, poor fit]	–
O=C(OCn1ncc(Cl)c(Cl)c1=O)c1cccc(C(F)(F)F)c1	5.62 µM [falling, full curve, poor fit]	–
COc1ccc(C(C)(C)C)cc1NC(=O)CSc1ncn[nH]1	2.91 µM [rising, single point]	–
O=C(COC(=O)C1CCN(S(=O)(=O)c2cccs2)CC1)c1ccccc1	0.501 µM [rising, full curve, poor fit]	–
CCOCCCNC(=O)c1ccc2nc(-c3ccc(OC)c(OC)c3)c(-c3ccc(OC)c(OC)c3)nc2c1	11.2 µM [rising, partial curve, poor fit]	22.4 µM [falling, partial curve, poor fit]
CC(=O)NC[C@H]1CN(c2ccc(N3CCOCC3)c(F)c2)C(=O)O1	2.24 µM [rising, full curve, poor fit]	–
O=C(COC(=O)c1ccc(F)c([N+](=O)[O-])c1)NC(=O)NCc1ccccc1	11.6 µM [falling, single point]	–
CC(C)CC(COCc1ccc(Cl)cc1)N1CCN(C(=O)c2ccc(Cl)cc2Cl)CCC1=O (stereo unspecified)	18.4 µM [falling, single point]	–
COc1ccc(CCn2c(N)c(C(=O)NCc3ccco3)c3nc4ccccc4nc32)cc1OC	11.2 µM [falling, partial curve, poor fit]	–
O=C(C1=C[C@@H](C2CC2)C[C@@H](OCCCCO)O1)N1CCOCC1	3.55 µM [rising, partial curve, poor fit]	–
Oc1cccc(/C=N\Nc2nncc(-c3ccccc3)n2)c1	2 µM [falling, full curve]	–
CCc1ccc(N/C(SCc2cccc(F)c2)=C(/C#N)C(=O)NCc2ccco2)cc1	10 µM [falling, partial curve]	–
C(=N\Nc1nc2ccccc2[nH]1)/c1ccc2ncccc2c1	14.1 µM [falling, single point]	–
On1onc2c3cc(-c4ccccc4)nc3ccc21	14.6 µM [falling, single point]	–
CCOc1cc(/C=N/Nc2cccc(C(=O)O)c2)ccc1OCC(=O)N1CCCCC1	35.5 µM [falling, partial curve, poor fit]	–

Reference: PubChem BioAssay AID493014 (National Center for Advancing Translational Sciences (NCATS), 2011)
